Results on one molecule are retold here after article PMC5047949, “Kinetic analysis of the translocator protein positron emission tomography ligand [^18F]GE-180 in the human brain” (European Journal of Nuclear Medicine and Molecular Imaging, 2016).

For the data set, the system named is translocator protein (TSPO). Description: Dynamic [^18F]GE-180 brain PET with arterial input; 1TC, 2TC and Logan kinetic modelling. It counts as in vivo, human. The procedure: PET studies were performed on a Biograph 6 (six-slice CT) scanner after administration of 182 ± 3.1 MBq via intravenous bolus injection over 10 s followed by a 10-mL saline flush. A low-dose CT scan preceded the PET acquisition to allow correction for tissue attenuation. Emission data were then acquired over 90 min in list mode and reconstructed as 24 temporal frames (6 × 15, 3 × 60, 5 × 120, 5 × 300, 5 × 600 s) using filtered back-projection (matrix size 168 × 168, zoom 2.6, 5-mm gaussian filter, pixel size 1.56 × 1.56, slice thickness 3 mm) with and without attenuation correction. Standard corrections for scatter, decay and random counts were applied.
We used the PET data analysis and kinetic modelling toolkit, MIAKAT™ (www.miakat.org), which incorporates software from SPM5 (Wellcome Trust Centre for Neuroimaging) and FSL (FMRIB, University of Oxford). The brain was initially extracted from the T1-weighted MR images. The CIC neuroanatomical atlas was nonlinearly registered to the individual’s extracted brain in order to generate a personalized set of anatomically parcellated regions. […]
Datasets were analysed with a one-tissue compartment (1TC) model and a two-tissue compartment (2TC) model and the Logan graphical method, using the metabolite-corrected plasma input function as previously described with a fixed 5 % blood volume correction. […]

As for `CCN(CC)C(=O)[C@H]1CCCc2c1c1c(OC)cccc1n2CC[18F]` [[^18F]GE-180], under “2TC model, 40 to 90 min windows in 10-min increments”, the “time stability of VT” value is “increasing VT for each successive time window”. Further, for the setting “across all ROIs”, the “difference in VT between HABs and MABs” value is listed as “no significant differences”.
